# Reference: patent US20190008757A1, “DERMATOLOGICAL OR COSMETIC COMPOSITIONS CONTAINING A POLYPHENOL?ENRICHED EXTRACT OF VITEX NEGUNDO” (Laboratoires Expanscience, priority 2016, published 2019)
# For at least one compound, name, drawing or mass did not settle the structure.
# Tests used:
# Prostaglandin E2 (PGE2) = assay: Assay of PGE2 in keratinocytes treated with 10 μg/mL PMA; type: cell-based, human; conditions: 0.1 μM, pretreatment for 24 hours
# Experimental: (§1) Release of the cytokines Interleukin-1 beta (IL1β) and Prostaglandin E2 (PGE2) was analysed. […] Inflammation was then induced by addition of 10 μg/mL PMA overnight. An assay of IL1β and PGE2 was then performed in the cell culture supernatants. In parallel, the number of biologically active cells was determined by a neutral red assay. The amount of cytokine measured for each condition was normalised to the number of living cells determined by the neutral red assay. The significance of the results was verified by a one-factor analysis of variance followed by Tukey's test (GraphPad PRISM software version 5.02, GraphPad Software, San Diego Calif. USA).
# [1] = tested on: Interleukin-1 beta (IL1β); assay: Assay of IL1β in keratinocytes treated with 10 μg/mL PMA; type: cell-based, human; conditions: 0.1 μM, pretreatment for 24 hours
# Experimental: as §1
smiles,measurement,setting,value
"C[C@@H]1C[C@H]2[C@@H]3CCC4=CC(=O)C=C[C@]4(C)[C@@]3(F)[C@@H](O)C[C@]2(C)[C@@]1(O)C(=O)CO [Dexamethasone, dexamethasone]",release of PGE2 (in words),Prostaglandin E2 (PGE2),significantly decreased
same,"release of PGE2 (in words, printed under the IL1β results)",[1],decreased
